In paper PMC6803390:

T1: p140Cap adaptor protein (UniProt Q9QWI6)
T1 sequence: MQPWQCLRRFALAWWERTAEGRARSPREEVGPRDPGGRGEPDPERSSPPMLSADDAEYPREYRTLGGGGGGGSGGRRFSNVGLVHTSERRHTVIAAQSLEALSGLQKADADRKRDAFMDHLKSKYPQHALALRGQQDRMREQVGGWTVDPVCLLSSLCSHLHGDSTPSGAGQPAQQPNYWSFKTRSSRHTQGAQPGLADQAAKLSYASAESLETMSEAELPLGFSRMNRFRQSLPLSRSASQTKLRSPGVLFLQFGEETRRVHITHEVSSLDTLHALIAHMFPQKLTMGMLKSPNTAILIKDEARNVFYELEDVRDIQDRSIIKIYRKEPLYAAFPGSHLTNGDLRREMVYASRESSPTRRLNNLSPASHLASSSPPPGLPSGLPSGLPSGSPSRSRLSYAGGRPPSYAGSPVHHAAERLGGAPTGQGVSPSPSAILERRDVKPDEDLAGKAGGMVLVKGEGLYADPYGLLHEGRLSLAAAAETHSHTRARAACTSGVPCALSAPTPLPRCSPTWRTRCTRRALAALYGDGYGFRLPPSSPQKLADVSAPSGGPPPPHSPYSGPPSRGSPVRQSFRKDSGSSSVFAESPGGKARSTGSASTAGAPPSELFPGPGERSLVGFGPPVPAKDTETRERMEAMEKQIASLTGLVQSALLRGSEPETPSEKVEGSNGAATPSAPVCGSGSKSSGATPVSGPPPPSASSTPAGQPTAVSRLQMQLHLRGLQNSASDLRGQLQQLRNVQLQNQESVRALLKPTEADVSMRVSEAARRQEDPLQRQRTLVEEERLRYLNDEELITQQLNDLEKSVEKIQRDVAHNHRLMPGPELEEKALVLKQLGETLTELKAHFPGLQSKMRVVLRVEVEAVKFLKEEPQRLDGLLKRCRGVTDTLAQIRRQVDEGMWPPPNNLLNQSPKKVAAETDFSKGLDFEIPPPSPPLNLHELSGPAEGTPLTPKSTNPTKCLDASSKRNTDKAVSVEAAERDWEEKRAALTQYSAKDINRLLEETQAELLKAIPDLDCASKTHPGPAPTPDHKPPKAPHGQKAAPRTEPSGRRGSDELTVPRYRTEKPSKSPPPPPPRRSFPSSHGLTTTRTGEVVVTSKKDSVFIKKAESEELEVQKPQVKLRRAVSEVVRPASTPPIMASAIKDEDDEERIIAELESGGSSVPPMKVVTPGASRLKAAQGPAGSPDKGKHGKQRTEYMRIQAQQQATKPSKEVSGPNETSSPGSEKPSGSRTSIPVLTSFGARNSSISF


Target: T1, p140Cap adaptor protein
Test: affinity purification with mass spectrometry; p140Cap Mab cross-linked to protein G Dynabeads, 9 mg cell extract of p140-TUBO against NeuT-TUBO (mock) cells, lysis buffer 150 mM NaCl, 50 mM Tris pH 7.4, 1% NP-40, 1 mM MgCl2, 5% glycerol, 2 h at 4°C; label-free nanoLC-MS/MS, three experiments

Row | Binder | binding
1 | ADD3 (protein, UniProt Q9QYB5 1-706) MSSDTSPAVVTTPPPPSMPHKERYFDRINESDPEYLRERNMSPDLRQDFNMMEQRKRVTQILQSPAFREDLECLIQEQMKKGHNPSGLLALQQIADYIVTSSFSGFSSPSLSLGMVTPINDLPGADTSSYVKGEKLTRCKLASLYRLADLFGWAHLANTYISVRISKEQDHIIIIPRGLSFSEATASTLVKVNIIGEVVDQGSTDLKIDHTGFSPHAAIYSTRPDVKCVIHIHTLATAAVSSMKCGILPISQESLILGDVAYYDYQGSLDEEEERIELQKVLGPSCKVLVLRNHGMVALGETLEEAFHYIFNVQMACEIQVQAVAGAGGVDNLLVLDLQKYKAFTHGVAMSGGGGVNMASHQKWKVGEIEFEGLMRTLDNLGYRTGYAYRHPLVREKPRHKSDVEIPATVTAFSFEDDSAPLSPLKFMAQRQQREKTRWLNSPNTYMKVNVPEESRNGETSPRTKITWMKAEDSSKVSSGTPIKIEDPNQFVPLNTNPTEVLEKRNKIREQNRYDLKTAGPQSQLLAGIVVDKPPSTMQFDDDDQGPPAPPNPFSHLLEGELEEYTKTIERKQQGLDDAEQGSLSDDAASVSQIQSQTQSPQSVPERLEENHELFSKSFTSMDAPVMIMNGKDEMHDVEDELAQRVSRLTTSTTIENIEITIKSPERTEEVLSPDGSPSKSPSKKKKKFRTPSFLKKNKKKEKVEA | binds
2 | PKP4 (protein, UniProt Q68FH0 1-1190) MPAPEQGSLVEEGQPQTHQEAVSTGPGMEPETTATTILASVKEQELQFQRLTRELEVERQIVASQLERCRLGAESPSIASTSSTEKSFPWRSTDVPNPGVSKPRVSDTIHPNNYLIRTEPEQGTLYSPEQTSLHESEGSLGNSRSSTQMNSYSDSGYQEAGSFHNSQTVNKADSRQHPFTGSTSNHVVRTSRAEGQTLVQPSVANRAMRRVSSVPSRAQSPSYVTSTGVSPSRGSLRTSLGSGFGSPSVTDSRPLNPSAYSSSTLPAQRAASPYSQRPASPTAVRRVGSVTSRQTSNPNGPVPQYQTTTRVGSPLTLTDAQTRVASPSQGQVGSSSPKRSGMTAVPQHLGPSLQRTVHDMDQFGQQQYDIYERMVPPRPDSLTGLRSSYASQHSQLGQELRSAVSPDLHITPIYEGRTYYSPVYRSPNHGTVELQGSQTALYRTGSVGIGNLQRTSSQRSTLTYQRNNYALNTAATYAEPYRPVQYRVQECSYNRLQHTGPADDGATRSPSIDSIQKDPREFAWRDPELPEVIHMLQHQFPSVQANAAAYLQHLCFGDNKVKMEVYRLGGIKHLVDLLDHRVLEVQKNACGALRNLVFGKSTDENKIAMKNVGGIPALLRLLRKSIDAEVRELVTGVLWNLSSCDAVKMTIIRDALSTLTNTVIVPHSGWNNSSFDDDHKIKFQTSLVLRNTTGCLRNLSSAGEEARKQMRSCEGLVDSLLYVIHTCVNTSDYDSKTVENCVCTLRNLSYRLELEVPQARLLGLNELDDLLGKESPSKDSEPSCWGKKKKKKKRTPQEDQWDGVGPIPGLSKSPKGVEMLWHPSVVKPYLTLLAESSNPATLEGSAGSLQNLSAGNWKFAAYIRAAVRKEKGLPILVELLRMDNDRVVSSVATALRNMALDVRNKELIGKYAMRDLVNRLPGGNGPSILSDETVAAICCALHEVTSKNMENAKALADSGGIEKLVNITKGRGDRSSLKVVKAAAQVLNTLWQYRDLRSIYKKDGWNQNHFITPVSTLERDRFKSHPSLSTTNQQMSPIIQSVGSTSSSPALLGIREPRSEYDRTQPPMQYYNSQGDTTHKGLYPGSSKPSPIYISSYSSPAREQNRRLQHQQLYYQDDSTRKTLDAYRLYLQSPRSYEDPYCDDRVHFPASTDYSTQYGLKSTTNYVDFYSTKRPSYRAEQYPGSPDSWV | binds
3 | TOM1L2 (protein, UniProt Q5SRX1 1-507) MEFLLGNPFSTPVGQCLEKATDGSLQSEDWTLNMEICDIINETEEGPKDAIRALKKRLSGNRNYREVMLALTVLETCVKNCGHRFHLLVANRDFIDSVLVKIISPKNNPPTIVQDKVLALIQAWADAFRSSPDLTGVVHIYEELKRRGIEFPMADLDALSPIHTPQRSVPEMDPAATIPRSQTQPRTTAGTYSSPPPASYSTLQAPALSVTGPITANSEQIARLRSELDIVRGNTKVMSEMLTEMVPGQEDSSDLELLQELNRTCRAMQHRIVELISRVSNEEVTEELLHVNDDLNNVFLRYERFERYRSGRSVQNASNGVLSEVTEDNLIDLGPGSPAVVSPMVGSTAPPSSLSSQLAGLDLGTESVSGTLSSLQQCKPQDGFDMFAQTRGNSLAEQRKTVTYEDPQAVGGLASALDNRKQNSEMIPVAQPSVMDDIEVWLRTDLKGDDLEEGVTSEEFDKFLEERAKAAETVPDLPSPPTEAPAPASNTSTRKKPERSDDALFAL | binds
4 | MCC (protein, UniProt E9PWI3 1-1003) MAAASACNSSGGSSDTSSTGEEERLRRLFQTCDGDGDGYISRNDLLMVCRQLSMEESVAEIMNQLGSDENGKISFQDFTRCHTQLVREIRKEEGDLSMKSDMSSTKRLSERITSWPTSSDNSLGALSAARESWEDDSGARDLQSPDLQSQRPLQKLLEYGGSSLPQQAVLHKLLTHAPNFGTSTGGSYLELASTLHLAALASLKGDIVELNKRLQQTERERDLLEKKLAKAQCEQSHLMREHEDVQERTTLRYEERITELHSIIAELNKKIDRLQGTTIREEDEYSELRSELSQSQQEVNEDSRSVDQDQTSVSIPENQSTMVTADMDNCSDLNSELQRVLTGLESVVCGRKKSSCSLSVADVDRHIEQLTTASEHCDLAIKTVEEIEGVLGRDLYPNLAEERSRWEKELAGLREENESLTAMLCSKEEELNRTKATMNAIREERDRLRRRVRELQTRLQSVQATGPSSPGRLTPANRPINPSTGELSTSSSSNDIPIAKIAERVKLSKTRSESSSSDRPVLGSEISSIGVSSSVAEHLAHSLQDCSNIQEIFQTLYSHGSAISESKIREFEVETERLNSRIEHLKSQNDLLTITLEECKSNAERMSMLVGKYESNATALRLALQYSEQCIEAYELLLALAESEQSLILGQFRAAGVGSSPGDQSGDENITQMLKRAHDCRKTAENAAKALLMKLDGSCGGAFAVAGCSVQPWESLSSNSHTSTTSSTASSCDTEFTKEDEQRLKDYIQQLKNDRAAVKLTMLELESIHIDPLSYDVKPRGDSQRLDLENAVLMQELMAMKEEMAELKAQLYLLEKEKKALELKLSTREAQEQAYLVHIEHLKSEVEEQKEQRTRSLSSTSSSGKEKPGKECADAASPALSLAELRTNSDSELATEFANAIRREKKLKARVQELVSALERLTKSSEIRHQQSAEFVNDLKRANSNLVAAYEKAKKKHQNKLKKLESQMMAMVERHETQVRMLKQRIALLEEENSRPHTNETSL | binds
5 | Catenin delta-1 (protein, UniProt P30999 1-938) MDDSEVESTASILASVKEQEAQFEKLTRALEEERRHVSAQLERVRVSPQDANSLMANGTLTRRHQNGRFVGDADLERQKFSDLKLNGPQDHNHLLYSTIPRMQEPGQIVETYTEEDPEGAMSVVSVETTDDGTTRRTETTVKKVVKTMTTRTVQPVPMGPDGLPVDASAVSNNYIQTLGRDFRKNGNGGPGPYVGQAGTATLPRNFHYPPDGYGRHYEDGYPGGSDNYGSLSRVTRIEERYRPSMEGYRAPSRQDVYGPQPQVRVGGSSVDLHRFHPEPYGLEDDQRSMGYDDLDYGMMSDYGTARRTGTPSDPRRRLRSYEDMIGEEVPPDQYYWAPLAQHERGSLASLDSLRKGMPPPSNWRQPELPEVIAMLGFRLDAVKSNAAAYLQHLCYRNDKVKTDVRKLKGIPILVGLLDHPKKEVHLGACGALKNISFGRDQDNKIAIKNCDGVPALVRLLRKARDMDLTEVITGTLWNLSSHDSIKMEIVDHALHALTDEVIIPHSGWEREPNEDCKPRHIEWESVLTNTAGCLRNVSSERSEARRKLRECDGLVDALIFIVQAEIGQKDSDSKLVENCVCLLRNLSYQVHREIPQAERYQEALPTVANSTGPHAASCFGAKKGKDEWFSRGKKPTEDPANDTVDFPKRTSPARGYELLFQPEVVRIYISLLKESKTPAILEASAGAIQNLCAGRWTYGRYIRSALRQEKALSAIAELLTSEHERVVKAASGALRNLAVDARNKELIGKHAIPNLVKNLPGGQQNSSWNFSEDTVVSILNTINEVIAENLEAAKKLRETQGIEKLVLINKSGNRSEKEVRAAALVLQTIWGYKELRKPLEKEGWKKSDFQVNLNNASRSQSSHSYDDSTLPLIDRNQKSDKKPDREEIPMSNMGSNTKSLDNNYSTLNERGDHNRTLDRSGDLGDMEPLKGAPLMQKI | binds

No constants are given. Whether binding was seen depends on the method and setting. Binding seen in cells or lysates may run through a third protein. Here binding means that the protein was enriched with, or labelled near, the bait; the list need not be complete.
